Measured values as given in PMC4944146.
These are yes or no findings as the source states them, for the method shown. For some of these results: Binding seen in cells or lysates may run through a third protein. Some results given as binding are weak or reduced against the parent protein; the word gives no strength. For some of these results: Tags and fused reporters may be left off the sequences shown.

Sequences of proteins named here, by UniProt entry; tags and fusion partners are left off. Residues count along the entry.
UniProt Q9ZNZ7, residues 106-1622: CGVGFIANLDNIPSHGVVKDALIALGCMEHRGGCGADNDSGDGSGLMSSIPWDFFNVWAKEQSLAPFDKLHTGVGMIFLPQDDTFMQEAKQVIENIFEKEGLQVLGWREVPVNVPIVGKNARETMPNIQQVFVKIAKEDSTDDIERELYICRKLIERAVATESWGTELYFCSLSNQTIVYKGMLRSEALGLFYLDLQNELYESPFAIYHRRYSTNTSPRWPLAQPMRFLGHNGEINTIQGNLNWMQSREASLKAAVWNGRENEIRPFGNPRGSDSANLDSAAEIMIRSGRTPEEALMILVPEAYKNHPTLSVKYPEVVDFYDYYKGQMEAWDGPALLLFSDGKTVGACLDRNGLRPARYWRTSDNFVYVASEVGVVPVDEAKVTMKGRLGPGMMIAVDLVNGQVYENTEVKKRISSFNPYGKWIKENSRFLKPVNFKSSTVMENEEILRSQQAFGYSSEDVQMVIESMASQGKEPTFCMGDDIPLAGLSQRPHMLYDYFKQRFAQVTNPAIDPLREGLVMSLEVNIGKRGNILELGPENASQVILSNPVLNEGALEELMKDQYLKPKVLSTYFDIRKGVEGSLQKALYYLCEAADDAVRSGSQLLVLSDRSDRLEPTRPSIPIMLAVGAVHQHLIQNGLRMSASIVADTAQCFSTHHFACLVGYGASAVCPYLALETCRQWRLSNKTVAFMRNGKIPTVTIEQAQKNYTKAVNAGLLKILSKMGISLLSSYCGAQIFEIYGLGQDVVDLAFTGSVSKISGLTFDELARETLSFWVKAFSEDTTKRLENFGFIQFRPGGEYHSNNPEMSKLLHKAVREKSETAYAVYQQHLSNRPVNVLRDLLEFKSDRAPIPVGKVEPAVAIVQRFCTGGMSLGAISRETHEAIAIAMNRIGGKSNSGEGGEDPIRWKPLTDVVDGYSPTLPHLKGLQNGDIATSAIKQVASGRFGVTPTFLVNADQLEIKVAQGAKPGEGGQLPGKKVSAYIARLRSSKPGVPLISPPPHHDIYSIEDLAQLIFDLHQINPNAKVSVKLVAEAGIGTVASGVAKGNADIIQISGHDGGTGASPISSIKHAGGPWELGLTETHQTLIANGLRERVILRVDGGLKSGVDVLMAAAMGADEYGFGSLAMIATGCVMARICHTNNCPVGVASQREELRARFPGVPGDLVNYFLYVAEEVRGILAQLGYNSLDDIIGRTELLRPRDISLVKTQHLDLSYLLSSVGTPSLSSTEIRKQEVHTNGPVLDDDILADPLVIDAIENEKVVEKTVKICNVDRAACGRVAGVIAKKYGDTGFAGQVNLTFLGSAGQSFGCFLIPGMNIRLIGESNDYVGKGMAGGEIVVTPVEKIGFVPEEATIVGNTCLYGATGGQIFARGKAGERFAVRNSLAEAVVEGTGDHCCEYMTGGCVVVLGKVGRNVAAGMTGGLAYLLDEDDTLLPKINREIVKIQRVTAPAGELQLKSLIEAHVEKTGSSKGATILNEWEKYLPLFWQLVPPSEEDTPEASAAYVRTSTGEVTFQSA

Legend:
[1] = target: T1, ACR11, ACT domain-containing family protein (Arabidopsis thaliana (endogenous in rosette leaves)) (UniProt Q9FZ47); assay: native gel or EMSA; BN-PAGE (4–13% gradient gels, 4 °C) of soluble proteins from rosette leaves of wild-type, acr11, acr12 and ACR11-FLAG plants, followed by immunoblot with anti-Fd-GOGAT and anti-ACR11 antibodies
T1 sequence: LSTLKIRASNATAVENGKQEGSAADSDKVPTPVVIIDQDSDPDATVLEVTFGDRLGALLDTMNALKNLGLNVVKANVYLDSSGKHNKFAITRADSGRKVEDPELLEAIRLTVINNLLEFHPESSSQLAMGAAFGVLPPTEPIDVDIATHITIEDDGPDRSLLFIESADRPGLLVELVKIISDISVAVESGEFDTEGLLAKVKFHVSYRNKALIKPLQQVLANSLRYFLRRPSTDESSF

[2] = target: T2, ACR11-FLAG (ACR11 with a FLAG tag inserted between A75 and D76) (Arabidopsis thaliana) (UniProt Q9FZ47); assay: as above
T2 sequence: T1 sequence

[3] = target: T2, ACR11-FLAG (ACR11 with a FLAG tag inserted between A75 and D76) (Arabidopsis thaliana); assay: co-IP; Soluble leaf proteins of wild-type and ACR11-FLAG plants incubated with anti-DYKDDDDK beads for 15 min at 25 °C; three washes with BN-solubilization buffer; eluted with DYKDDDDK peptide or SDS buffer; immunoblot
[4] = target: T1, ACR11, ACT domain-containing family protein (Arabidopsis thaliana (endogenous in rosette leaves)); assay: native gel or EMSA; BN-PAGE coupled with LC-MS/MS of gel slices; Arabidopsis intact chloroplasts (1% β-dodecyl maltoside, 57 slices) and chloroplast stroma (20 μg, 56 slices); emPAI-based protein migration profiles compared

Measured: binding

Glu1-encoded ferredoxin-dependent glutamate synthase (Fd-GOGAT) (from UniProt Q9ZNZ7 106-1622) (enzyme)
binds: all assays above
